These are yes or no findings as the source states them, for the method shown. Sequences can lack the tags named with a protein.
Biological target: Fc-iNKG2D.YA (human) (UniProt P26718)
Assay: BLI; FortéBio Octet; Fc-wtNKG2D, Fc-iNKG2D.YA or Fc-iNKG2D.AF captured on anti-human IgG Fc capture (AHC) biosensor tips; titration series of monomeric MIC-His ligands or monomeric ULBP2 variants; both purified

Sequences of proteins named here, by UniProt entry; tags and fusion partners are left off. A change or cut given only in a name is not applied to a line headed by its entry. A line that says so, or that is headed by a name, gives the form on record, which may keep a tag or linker.
Fc-iNKG2D.YA (P26718, form named): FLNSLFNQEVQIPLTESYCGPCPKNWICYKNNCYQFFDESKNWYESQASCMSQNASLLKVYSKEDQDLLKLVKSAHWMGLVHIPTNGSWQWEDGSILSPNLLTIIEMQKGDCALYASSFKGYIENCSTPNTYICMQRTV

| Binder | binding |
| --- | --- |
| MICB α1α2 domain, C-terminal 6×-His (domain or fragment, UniProt Q29980 24-205) EPHSLRYNLMVLSQDGSVQSGFLAEGHLDGQPFLRYDRQKRRAKPQGQWAENVLGAKTWDTETEDLTENGQDLRRTLTHIKDQKGGLHSLQEIRVCEIHEDSSTRGSRHFYYDGELFLSQNLETQESTVPQSSRAQTLAMNVTNFWKEDAMKTKTHYRAMQADCLQKLQRYLKSGVAIRRTV | no binding |
| MICA*001 α1α2 domain, C-terminal 6×-His (domain or fragment, UniProt Q29983 24-205) EPHSLRYNLTVLSWDGSVQSGFLTEVHLDGQPFLRCDRQKCRAKPQGQWAEDVLGNKTWDRETRDLTGNGKDLRMTLAHIKDQKEGLHSLQEIRVCEIHEDNSTRSSQHFYYDGELFLSQNLETKEWTMPQSSRAQTLAMNVRNFLKEDAMKTKTHYHAMHADCLQELRRYLKSGVVLRRTV | no binding |
| ULBP1 α1α2 domain, C-terminal 6×-His (domain or fragment, UniProt Q9BZM6 29-212) DTHCLCYDFIITPKSRPEPQWCEVQGLVDERPFLHYDCVNHKAKAFASLGKKVNVTKTWEEQTETLRDVVDFLKGQLLDIQVENLIPIEPLTLQARMSCEHEAHGHGRGSWQFLFNGQKFLLFDSNNRKWTALHPGAKKMTEKWEKNRDVTMFFQKISLGDCKMWLEEFLMYWEQMLDPTKPPS | no binding |

Second part, the binder after the results:

| binding | Binder |
| --- | --- |
| no binding | ULBP6 α1α2 domain, C-terminal 6×-His (domain or fragment, UniProt Q5VY80 29-212) DPHSLCYDITVIPKFRPGPRWCAVQGQVDEKTFLHYDCGNKTVTPVSPLGKKLNVTMAWKAQNPVLREVVDILTEQLLDIQLENYTPKEPLTLQARMSCEQKAEGHSSGSWQFSIDGQTFLLFDSEKRMWTTVHPGARKMKEKWENDKDVAMSFHYISMGDCIGWLEDFLMGMDSTLEPSAGAP |
| no binding | ULBP5 α1α2 domain, C-terminal 6×-His (domain or fragment, UniProt Q6H3X3-1 29-212) DPHSLCYDITVIPKFRPGPRWCAVQGQVDEKTFLHYDCGSKTVTPVSPLGKKLNVTTAWKAQNPVLREVVDILTEQLLDIQLENYIPKEPLTLQARMSCEQKAEGHGSGSWQLSFDGQIFLLFDSENRMWTTVHPGARKMKEKWENDKDMTMSFHYISMGDCTGWLEDFLMGMDSTLEPSAGAP |
| no binding | ULBP3 α1α2 domain, C-terminal 6×-His (domain or fragment, UniProt Q9BZM4 30-212) DAHSLWYNFTIIHLPRHGQQWCEVQSQVDQKNFLSYDCGSDKVLSMGHLEEQLYATDAWGKQLEMLREVGQRLRLELADTELEDFTPSGPLTLQVRMSCECEADGYIRGSWQFSFDGRKFLLFDSNNRKWTVVHAGARRMKEKWEKDSGLTTFFKMVSMRDCKSWLRDFLMHRKKRLEPTAPP |

— PMC7283332
